doi:10.1101/2023.12.18.571901

Chains of the proteins cited; added tags and fusions are not shown.
UniProt Q86U70: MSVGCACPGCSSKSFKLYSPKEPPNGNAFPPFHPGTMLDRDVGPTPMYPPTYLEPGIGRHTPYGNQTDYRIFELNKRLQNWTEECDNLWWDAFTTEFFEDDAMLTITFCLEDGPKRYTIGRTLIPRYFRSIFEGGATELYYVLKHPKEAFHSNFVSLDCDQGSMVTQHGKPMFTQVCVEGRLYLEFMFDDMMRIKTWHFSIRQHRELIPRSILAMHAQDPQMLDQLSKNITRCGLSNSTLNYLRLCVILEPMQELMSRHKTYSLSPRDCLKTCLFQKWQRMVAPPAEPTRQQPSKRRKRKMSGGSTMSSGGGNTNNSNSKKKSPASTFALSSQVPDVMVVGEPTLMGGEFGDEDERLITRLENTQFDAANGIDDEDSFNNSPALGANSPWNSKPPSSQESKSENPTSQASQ
UniProt Q9UHV7: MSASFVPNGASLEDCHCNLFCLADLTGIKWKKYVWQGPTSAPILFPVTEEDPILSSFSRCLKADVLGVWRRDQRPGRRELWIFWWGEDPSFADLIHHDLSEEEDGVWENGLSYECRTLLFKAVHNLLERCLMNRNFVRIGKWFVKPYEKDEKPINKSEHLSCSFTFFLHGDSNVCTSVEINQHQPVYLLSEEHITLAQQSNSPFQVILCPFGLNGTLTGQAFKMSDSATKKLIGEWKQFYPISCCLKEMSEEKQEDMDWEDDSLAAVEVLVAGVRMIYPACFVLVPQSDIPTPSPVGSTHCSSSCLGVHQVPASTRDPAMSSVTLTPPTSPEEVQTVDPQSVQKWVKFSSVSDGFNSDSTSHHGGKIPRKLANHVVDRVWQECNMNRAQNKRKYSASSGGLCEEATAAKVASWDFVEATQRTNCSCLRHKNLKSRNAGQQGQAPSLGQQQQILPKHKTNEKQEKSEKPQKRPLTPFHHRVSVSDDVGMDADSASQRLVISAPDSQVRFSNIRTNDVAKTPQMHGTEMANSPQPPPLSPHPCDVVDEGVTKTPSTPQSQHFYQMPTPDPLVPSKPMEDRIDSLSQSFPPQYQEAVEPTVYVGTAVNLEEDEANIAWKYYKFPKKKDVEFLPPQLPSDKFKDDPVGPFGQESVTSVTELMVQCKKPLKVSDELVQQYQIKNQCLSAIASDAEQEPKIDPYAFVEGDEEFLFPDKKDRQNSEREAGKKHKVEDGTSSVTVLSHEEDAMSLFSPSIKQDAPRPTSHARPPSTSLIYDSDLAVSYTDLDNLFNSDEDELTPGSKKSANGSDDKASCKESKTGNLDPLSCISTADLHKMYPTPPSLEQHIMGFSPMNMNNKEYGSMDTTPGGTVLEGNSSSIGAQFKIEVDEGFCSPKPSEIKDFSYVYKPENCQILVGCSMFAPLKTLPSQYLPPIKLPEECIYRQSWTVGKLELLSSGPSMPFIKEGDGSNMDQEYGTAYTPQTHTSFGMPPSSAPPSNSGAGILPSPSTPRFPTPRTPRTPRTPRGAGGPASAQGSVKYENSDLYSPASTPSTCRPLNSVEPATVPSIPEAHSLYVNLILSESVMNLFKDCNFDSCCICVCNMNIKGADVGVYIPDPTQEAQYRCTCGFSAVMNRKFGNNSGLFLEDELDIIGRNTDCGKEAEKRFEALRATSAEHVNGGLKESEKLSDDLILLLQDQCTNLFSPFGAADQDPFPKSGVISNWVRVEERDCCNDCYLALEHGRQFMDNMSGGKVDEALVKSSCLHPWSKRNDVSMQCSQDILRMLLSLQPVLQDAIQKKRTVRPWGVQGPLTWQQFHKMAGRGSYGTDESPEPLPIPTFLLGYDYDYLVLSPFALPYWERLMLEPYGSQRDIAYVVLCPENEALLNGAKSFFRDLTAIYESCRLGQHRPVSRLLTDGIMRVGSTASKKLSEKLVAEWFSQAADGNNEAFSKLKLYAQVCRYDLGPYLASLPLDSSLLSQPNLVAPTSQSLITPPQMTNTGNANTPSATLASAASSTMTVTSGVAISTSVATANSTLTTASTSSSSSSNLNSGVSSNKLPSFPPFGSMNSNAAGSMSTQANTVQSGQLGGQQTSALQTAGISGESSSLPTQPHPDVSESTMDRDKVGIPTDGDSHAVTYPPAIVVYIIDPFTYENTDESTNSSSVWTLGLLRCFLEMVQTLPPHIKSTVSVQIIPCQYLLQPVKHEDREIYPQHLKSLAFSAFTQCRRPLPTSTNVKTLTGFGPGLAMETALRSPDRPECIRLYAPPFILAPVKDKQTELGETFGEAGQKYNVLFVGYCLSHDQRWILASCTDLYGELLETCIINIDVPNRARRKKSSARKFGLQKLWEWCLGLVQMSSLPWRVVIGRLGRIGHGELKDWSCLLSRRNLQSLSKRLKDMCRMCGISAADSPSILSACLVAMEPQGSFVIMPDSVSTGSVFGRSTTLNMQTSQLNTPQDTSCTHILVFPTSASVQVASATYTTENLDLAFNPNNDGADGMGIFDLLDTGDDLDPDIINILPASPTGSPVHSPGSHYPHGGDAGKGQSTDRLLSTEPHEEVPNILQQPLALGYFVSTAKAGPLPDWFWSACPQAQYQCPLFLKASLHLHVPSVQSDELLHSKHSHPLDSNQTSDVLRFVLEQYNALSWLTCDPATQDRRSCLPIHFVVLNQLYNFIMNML
UniProt P28370: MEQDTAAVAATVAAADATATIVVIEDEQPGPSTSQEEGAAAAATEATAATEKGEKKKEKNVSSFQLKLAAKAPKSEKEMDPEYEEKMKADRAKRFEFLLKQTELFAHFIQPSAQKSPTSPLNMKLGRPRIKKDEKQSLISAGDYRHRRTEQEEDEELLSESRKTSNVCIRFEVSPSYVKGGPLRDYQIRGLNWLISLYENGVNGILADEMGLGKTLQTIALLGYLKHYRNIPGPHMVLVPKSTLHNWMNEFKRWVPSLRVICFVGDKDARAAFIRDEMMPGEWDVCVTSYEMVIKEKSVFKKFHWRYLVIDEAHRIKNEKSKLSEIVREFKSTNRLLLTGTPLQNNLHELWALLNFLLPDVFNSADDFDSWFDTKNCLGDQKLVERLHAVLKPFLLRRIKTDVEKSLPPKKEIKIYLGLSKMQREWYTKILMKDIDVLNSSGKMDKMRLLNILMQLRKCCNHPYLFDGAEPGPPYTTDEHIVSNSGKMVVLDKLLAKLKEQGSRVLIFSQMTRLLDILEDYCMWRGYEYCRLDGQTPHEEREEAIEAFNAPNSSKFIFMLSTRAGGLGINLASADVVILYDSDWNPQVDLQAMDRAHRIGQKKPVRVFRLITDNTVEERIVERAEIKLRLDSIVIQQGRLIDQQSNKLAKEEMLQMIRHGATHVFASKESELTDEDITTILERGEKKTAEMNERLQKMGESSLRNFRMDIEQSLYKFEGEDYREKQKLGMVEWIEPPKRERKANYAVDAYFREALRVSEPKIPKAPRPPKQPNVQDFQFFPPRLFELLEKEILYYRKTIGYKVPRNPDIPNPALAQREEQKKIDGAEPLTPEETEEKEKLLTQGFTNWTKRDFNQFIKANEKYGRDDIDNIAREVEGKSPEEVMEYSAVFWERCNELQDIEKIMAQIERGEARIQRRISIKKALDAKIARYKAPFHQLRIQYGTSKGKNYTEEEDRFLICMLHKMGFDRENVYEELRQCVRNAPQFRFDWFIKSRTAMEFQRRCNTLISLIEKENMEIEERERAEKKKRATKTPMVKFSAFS
UniProt Q92922: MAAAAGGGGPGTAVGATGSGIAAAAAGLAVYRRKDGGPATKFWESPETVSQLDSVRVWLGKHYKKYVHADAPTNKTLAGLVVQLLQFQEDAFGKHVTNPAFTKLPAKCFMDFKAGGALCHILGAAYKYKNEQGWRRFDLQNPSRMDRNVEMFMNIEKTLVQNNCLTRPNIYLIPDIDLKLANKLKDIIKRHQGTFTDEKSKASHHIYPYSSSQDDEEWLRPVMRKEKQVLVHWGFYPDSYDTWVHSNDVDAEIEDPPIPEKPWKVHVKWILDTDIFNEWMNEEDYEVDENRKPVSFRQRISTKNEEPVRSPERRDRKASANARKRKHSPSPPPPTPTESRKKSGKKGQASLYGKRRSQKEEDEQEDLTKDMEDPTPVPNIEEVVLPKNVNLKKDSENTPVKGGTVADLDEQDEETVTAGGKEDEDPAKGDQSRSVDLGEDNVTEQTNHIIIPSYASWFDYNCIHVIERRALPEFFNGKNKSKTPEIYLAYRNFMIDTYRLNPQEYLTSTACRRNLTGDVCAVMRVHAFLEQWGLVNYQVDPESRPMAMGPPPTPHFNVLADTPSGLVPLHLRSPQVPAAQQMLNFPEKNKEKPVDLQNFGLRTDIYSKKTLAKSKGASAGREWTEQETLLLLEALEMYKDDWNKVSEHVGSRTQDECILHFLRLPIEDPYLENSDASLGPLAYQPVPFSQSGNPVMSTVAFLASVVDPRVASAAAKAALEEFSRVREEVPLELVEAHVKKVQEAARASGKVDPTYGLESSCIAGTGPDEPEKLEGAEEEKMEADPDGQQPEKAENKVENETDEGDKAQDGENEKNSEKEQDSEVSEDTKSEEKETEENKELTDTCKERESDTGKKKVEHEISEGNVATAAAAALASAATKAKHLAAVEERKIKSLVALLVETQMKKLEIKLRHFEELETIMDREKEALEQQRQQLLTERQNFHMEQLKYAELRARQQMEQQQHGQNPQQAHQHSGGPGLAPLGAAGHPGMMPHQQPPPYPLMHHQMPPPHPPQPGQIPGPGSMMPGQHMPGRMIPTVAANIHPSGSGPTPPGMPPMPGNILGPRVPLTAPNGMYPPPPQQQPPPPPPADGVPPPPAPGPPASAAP
UniProt Q969G3: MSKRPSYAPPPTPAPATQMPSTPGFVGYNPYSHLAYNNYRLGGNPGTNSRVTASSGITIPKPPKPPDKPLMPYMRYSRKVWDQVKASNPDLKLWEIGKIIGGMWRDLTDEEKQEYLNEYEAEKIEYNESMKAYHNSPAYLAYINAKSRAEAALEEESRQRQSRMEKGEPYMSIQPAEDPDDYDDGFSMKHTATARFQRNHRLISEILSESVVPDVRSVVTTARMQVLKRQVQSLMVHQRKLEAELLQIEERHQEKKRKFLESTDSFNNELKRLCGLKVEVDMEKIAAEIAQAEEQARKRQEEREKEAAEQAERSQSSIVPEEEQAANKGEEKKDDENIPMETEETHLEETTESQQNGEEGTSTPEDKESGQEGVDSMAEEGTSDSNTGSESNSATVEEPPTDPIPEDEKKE
UniProt P36402: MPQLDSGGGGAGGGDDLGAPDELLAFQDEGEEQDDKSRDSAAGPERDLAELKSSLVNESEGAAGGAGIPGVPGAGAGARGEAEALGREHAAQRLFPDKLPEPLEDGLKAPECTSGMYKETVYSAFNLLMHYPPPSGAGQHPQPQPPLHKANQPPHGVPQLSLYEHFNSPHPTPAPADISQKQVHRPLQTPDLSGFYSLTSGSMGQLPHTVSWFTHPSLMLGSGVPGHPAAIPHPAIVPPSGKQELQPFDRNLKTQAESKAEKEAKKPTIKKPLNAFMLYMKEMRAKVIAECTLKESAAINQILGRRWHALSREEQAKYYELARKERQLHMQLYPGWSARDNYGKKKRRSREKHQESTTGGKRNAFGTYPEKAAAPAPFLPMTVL
UniProt Q04725: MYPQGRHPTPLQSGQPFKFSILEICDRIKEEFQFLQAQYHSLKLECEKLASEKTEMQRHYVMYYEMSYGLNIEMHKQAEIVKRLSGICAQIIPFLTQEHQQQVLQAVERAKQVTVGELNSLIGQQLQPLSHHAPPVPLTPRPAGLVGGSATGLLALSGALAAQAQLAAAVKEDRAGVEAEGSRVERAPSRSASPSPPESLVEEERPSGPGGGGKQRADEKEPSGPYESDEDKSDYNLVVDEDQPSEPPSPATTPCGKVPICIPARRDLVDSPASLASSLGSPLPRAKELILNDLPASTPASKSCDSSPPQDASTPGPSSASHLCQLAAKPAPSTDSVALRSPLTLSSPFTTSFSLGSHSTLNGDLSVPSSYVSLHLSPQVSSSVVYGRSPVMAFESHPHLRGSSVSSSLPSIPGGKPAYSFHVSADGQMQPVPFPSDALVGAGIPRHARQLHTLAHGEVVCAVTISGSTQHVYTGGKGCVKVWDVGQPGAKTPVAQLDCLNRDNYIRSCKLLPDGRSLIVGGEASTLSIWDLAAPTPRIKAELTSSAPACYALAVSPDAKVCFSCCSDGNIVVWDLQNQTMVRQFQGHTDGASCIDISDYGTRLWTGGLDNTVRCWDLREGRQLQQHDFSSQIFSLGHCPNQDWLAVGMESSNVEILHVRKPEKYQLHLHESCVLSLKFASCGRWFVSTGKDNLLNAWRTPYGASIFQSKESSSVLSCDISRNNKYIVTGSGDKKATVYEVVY

Key:
[1] = molecular target: T1, TBX3-WT-BirA (UniProt O15119); experiment: proximity labelling
T1 sequence: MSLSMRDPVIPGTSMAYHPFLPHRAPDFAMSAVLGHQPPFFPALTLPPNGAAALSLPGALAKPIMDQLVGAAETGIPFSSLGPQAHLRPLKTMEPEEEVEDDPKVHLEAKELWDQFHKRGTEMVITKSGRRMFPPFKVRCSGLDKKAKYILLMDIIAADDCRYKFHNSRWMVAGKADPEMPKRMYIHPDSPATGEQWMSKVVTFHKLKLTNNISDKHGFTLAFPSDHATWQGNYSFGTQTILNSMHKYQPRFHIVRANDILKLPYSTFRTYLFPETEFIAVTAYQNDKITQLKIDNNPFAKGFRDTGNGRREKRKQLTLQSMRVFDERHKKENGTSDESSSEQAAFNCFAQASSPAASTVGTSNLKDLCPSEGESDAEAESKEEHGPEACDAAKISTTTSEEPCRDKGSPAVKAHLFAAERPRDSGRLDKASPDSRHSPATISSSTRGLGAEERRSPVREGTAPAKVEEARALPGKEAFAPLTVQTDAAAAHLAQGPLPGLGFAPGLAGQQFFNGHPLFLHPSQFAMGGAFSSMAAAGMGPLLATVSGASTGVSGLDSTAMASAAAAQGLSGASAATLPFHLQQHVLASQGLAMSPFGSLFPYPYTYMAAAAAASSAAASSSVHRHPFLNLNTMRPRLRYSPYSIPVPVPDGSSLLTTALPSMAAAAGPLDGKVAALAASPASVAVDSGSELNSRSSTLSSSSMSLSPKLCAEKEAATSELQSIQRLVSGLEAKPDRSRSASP

[2] = molecular target: TBX3-ΔNPF-BirA (UniProt O15119); experiment: proximity labelling

Row | binding [1] | binding [2] | Substance
1 | binds | – | JUN/FOS (human (endogenous in HEK293T)) (complex)
2 | binds | no binding | LDB1 (LIM domain-binding protein) (from UniProt Q86U70 1-411)
3 | binds | – | MED13 (from UniProt Q9UHV7 1-2174)
4 | binds | – | SMARCA1 (from UniProt P28370 1-1042)
5 | binds | – | SMARCC1 (from UniProt Q92922 1-1105)
6 | binds | – | SMARCE1 (from UniProt Q969G3 1-411)
7 | binds | – | TCF7 (from UniProt P36402 1-384)
8 | binds | – | TLE2 (from UniProt Q04725 1-743)

Results are given in words; binding and its absence hold for the method and conditions named. In cells and extracts the contact can be indirect. A yes stands for co-enrichment or nearness to the bait. Other partners may have been found. For part of these data: A no says only that the protein was not detected with the bait.
